Experimental data as given in patent US20220289865A1 (MINERVA BIOTECHNOLOGIES, published 2022).
No constants are given. Whether binding was seen depends on the method and setting. In cells and extracts the contact can be indirect. Some binding calls cover weakened binding; strength is not graded here.

By UniProt entry, the sequences of proteins in these tests, tags left out. Where a name states a change or a piece, a line headed by the entry shows the natural chain unless it says otherwise. Residues count along the entry.
UniProt P15941, residues 1110-1255: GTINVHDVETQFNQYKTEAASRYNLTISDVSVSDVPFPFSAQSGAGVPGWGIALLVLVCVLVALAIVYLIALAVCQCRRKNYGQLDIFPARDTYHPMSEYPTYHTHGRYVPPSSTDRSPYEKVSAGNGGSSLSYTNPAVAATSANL
UniProt Q9Y5B8: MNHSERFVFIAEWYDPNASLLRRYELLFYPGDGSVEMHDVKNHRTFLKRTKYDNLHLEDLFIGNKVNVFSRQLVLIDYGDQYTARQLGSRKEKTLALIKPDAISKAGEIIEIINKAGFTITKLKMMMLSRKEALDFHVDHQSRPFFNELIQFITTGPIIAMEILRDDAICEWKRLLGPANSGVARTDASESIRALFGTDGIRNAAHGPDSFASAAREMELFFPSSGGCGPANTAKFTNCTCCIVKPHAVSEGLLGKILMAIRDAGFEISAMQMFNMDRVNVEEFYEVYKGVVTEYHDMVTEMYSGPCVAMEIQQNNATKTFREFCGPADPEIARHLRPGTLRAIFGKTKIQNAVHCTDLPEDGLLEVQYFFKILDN

Columns and labels:
[1] = target: MUC1* (cleaved MUC1 growth factor receptor) of human cells (human) (UniProt P15941); test: co-immunoprecipitation from T47D and stem cell extracts with Ab-5, Western blot
[2] = target: MUC1* (cleaved MUC1 growth factor receptor) of human cells (human) (UniProt P15941); test: co-immunoprecipitation from iPS7 and HES3 stem cell extracts with Ab-5, Western blot
[3] = target: MUC1* (cleaved MUC1 growth factor receptor) of human cells (human) (UniProt P15941); test: co-immunoprecipitation from T47D extracts with Ab-5, Western blot
[4] = target: MUC1* (cleaved MUC1 growth factor receptor) of human cells (human) (UniProt P15941); test: co-immunoprecipitation with Ab-5, Western blot

Molecule: NME7-X1 (~30 kDa NME7 isoform) (from UniProt Q9Y5B8 125-376) (ligand)
- binding [1]: binds
- binding [2]: binds
- binding [3]: binds

B1: native human NME6 from cell lysates (ligand)
chain: MTQNLGSEMASILRSPQALQLTLALIKPDAVAHPLILEAVHQQILSNKFLIVRMRELLWRKEDCQRFYREHEGRFFYQRLVEFMASGPIRAYILAHKDAIQLWRTLMGPTRVFRARHVAPDSIRGSFGLTDTRNTTHGSDSVVSASREIAAFFPDFSEQRWYEEEEPQLRCGPVCYSPEGGVHYVAGTGGLGPA
- binding [4]: binds
